Literature values as cited in patent US20250312309A1, “ALLYL-AND PROPARGYLAMINE-TYPE PHENE[…] T[…] TREATING MEDICAL DISORDERS” (Mind Medicine, Inc., priority 2023, published 2025).
Several values for one entry are separate records, joined by “and”; a condition that tells them apart may be missing. Equal values may be shown once.

Conditions: humans; cited from earlier work

Row | SMILES | duration of action / psychoactive effects
1 | COc1cc(CC(C)N)c(OC)cc1C (centres unmarked) [DOM, 2,5-dimethoxy-4-methylamphetamine] | 14 to 20 h
2 | CCN(CC)C(=O)[C@@H]1C=C2c3cccc4[nH]cc(c34)C[C@H]2N(C)C1 [LSD, lysergic acid diethylamide] | 8 to 14 h and 8 to 12 h
